These are yes or no findings as the source states them, for the method shown. Some results given as binding are weak or reduced against the parent protein; the word gives no strength.
Key:
Assay in all cases: two-hybrid
[1] = molecular target: MDT-15-KIX (aa 1-124) (C. elegans) (UniProt Q21955)
[2] = molecular target: MDT-15ΔCT (aa 1-598) (C. elegans) (UniProt Q21955)
[3] = molecular target: MDT-15-NT (aa 1-338) (C. elegans) (UniProt Q21955)

By UniProt entry, the sequences of proteins in these tests, tags left out. Where a name states a change or a piece, a line headed by the entry shows the natural chain unless it says otherwise. Residues count along the entry.
UniProt Q21955: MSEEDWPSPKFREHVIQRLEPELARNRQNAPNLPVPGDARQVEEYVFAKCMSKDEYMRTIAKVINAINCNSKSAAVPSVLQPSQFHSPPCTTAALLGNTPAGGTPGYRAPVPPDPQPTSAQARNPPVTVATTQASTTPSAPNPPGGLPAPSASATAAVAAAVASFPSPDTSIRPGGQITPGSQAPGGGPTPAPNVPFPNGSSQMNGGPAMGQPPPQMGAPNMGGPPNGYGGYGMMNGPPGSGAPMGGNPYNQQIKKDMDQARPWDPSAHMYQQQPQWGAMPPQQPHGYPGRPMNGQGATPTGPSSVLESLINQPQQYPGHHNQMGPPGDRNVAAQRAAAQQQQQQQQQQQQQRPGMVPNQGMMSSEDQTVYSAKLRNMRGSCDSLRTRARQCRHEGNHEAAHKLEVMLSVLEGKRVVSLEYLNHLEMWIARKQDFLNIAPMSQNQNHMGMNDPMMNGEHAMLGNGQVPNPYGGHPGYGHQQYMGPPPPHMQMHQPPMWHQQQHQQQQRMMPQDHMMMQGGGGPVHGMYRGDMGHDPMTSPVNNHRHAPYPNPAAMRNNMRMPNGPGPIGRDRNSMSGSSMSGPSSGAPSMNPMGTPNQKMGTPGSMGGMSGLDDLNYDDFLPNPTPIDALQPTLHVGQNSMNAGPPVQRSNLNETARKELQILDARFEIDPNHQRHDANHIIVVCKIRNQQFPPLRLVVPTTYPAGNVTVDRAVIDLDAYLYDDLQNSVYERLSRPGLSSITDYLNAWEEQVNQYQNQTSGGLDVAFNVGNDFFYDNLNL
MDT-15ΔCT (aa 1-598): residues 1-598 of Q21955
MDT-15-NT (aa 1-338): residues 1-338 of Q21955
MDT-15-KIX (aa 1-124): residues 1-124 of Q21955

Measured: binding

B1: NHR-10 (protein, UniProt P41999 1-395)
chain: MTGGGPSSNNSSQPEEVCLVCSDISTGYHYGVPSCNGCKTFFRRTIMKNQTFSCQFQGKCPVDKSIRCACRHCRFEKCLQVGMDRNAIQQNRDPIGYTKRTRRYPPIKKVEASDECSPAMVSENDRSEDNFLTLLSSTEQKCCALRLAEYMPSRTLIEAVVSDCLLTDEVFMAEHAILSPRHRVTSLRFANQSDYHYWHERDWFVMIEWAKTLPVFQSLPFTDKLALLRHSAITYPSLVHVFNSPDHGLDTIVFPDGAYFDRTPEPTRPLGFNKKKYQMLDQLLKPMRSMEIDMTEFAAFKAIFFLNPDADDVDSNAKKTLSDGRSAITNALYRYMVKKKGAEDAGDRFGRLLLLGTVLATMAVEMKEAVLVADFFDQIQFSTFAKQLLFGIKTE
binds: all assays above

Reference: doi:10.1101/2022.12.16.520805
